The record followed here is the supplement of paper PMC12889115.

Molecules are shown by their SMILES. The list shows a part of the results. These are raw signals, not scaled to a control.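 Primary screen: polymyxin B was added at a level permeabilizing Salmonella outer membranes while sparing inner membranes. DMSO wells, both with and without polymyxin B, established maximum growth. Plate-to-plate variation meant each plate was ranked on its own, and the lowest-OD600 compounds were selected as hits.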

The test system of the assay is Salmonella enterica serovar Typhimurium SL1344. Nature of the assay: bacterial growth OD600 after 18 h with compound and polymyxin B; higher = more bacterial growth (less inhibition). Conditions: 50 µM, Mueller-Hinton broth.

Take `CCC1CN(Cc2ccc(OC)cc2OC)Cc2cc(OC)ccc2O1` (centres undefined): under “polymyxin B 0.75 µg/mL”, the “bacterial growth OD600” value stood at 0.73.
For the molecule `Cc1nc(CC(=O)N2CCCC(CCC(=O)NCc3ccccc3Cl)C2)cs1` (centres undefined), the “bacterial growth OD600” value (polymyxin B 1 µg/mL) stood at 1.11.
Regarding `COc1ccc(CCC2CCCN(C(=O)c3cc(C)on3)C2)cc1` (centres undefined), where the note is “polymyxin B 0.75 µg/mL”, the “bacterial growth OD600” value worked out at 0.44.
Same read-out and setting: next, `O=C(CCC1CCCN(C(=O)c2ccsc2)C1)NC1CC1` (centres undefined): 0.823; `CCCS(=O)(=O)NCc1nc(NCCCc2ccccc2)c2ccccc2n1`: 0.795.
Regarding `CC(=O)c1cccc(OCc2cc(C(=O)NCC(F)(F)F)n[nH]2)c1`, for the setting “polymyxin B 1 µg/mL”, the “bacterial growth OD600” value is 1.2.
On to `Cc1ncc2c(c1CNC(=O)c1ccc3c(c1)OCO3)CCN(C(=O)c1cc(Cl)ccc1F)C2`, for which, under “polymyxin B 0.75 µg/mL”, the “bacterial growth OD600” value worked out at 0.656.
In the case of `CC(C)(C)C(=O)Nc1ccnn1C1CCN(C(=O)c2ccccc2-c2ncc[nH]2)CC1`, where the note is “polymyxin B 1 µg/mL”, the “bacterial growth OD600” value was 1.06.
On the same count and under the same terms, next, `CC1CCCN(Cc2c(C(=O)N3CCN(C4CCCCC4)CC3)nc3ccccn23)C1` (centres undefined): 1.05.
